Measured data: PubChem BioAssay AID602196 (INSERM, 2012)
Here is one part, drawn at random, of about 23,000 deposited reagents. 455 of them (2%) were called active. 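Active includes both protection and sensitisation; some change values fall well beyond the stated -50 to +50 range.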 A number with no mark means an inactive call. Not all columns of the deposit are shown. Not stated in the record: the amount of reagent.

Purpose: 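Modifiers of cisplatin sensitivity in A549 cells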
Cell system: human A549 lung cancer cells
Reagents: siRNA pair against human genes
Time to read-out: 48 h transfection before cisplatin; time from cisplatin to read-out not stated
Treatment: cisplatin at a dose killing half of control-siRNA cells; exact dose and duration not given
Measurement: 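Shift in cisplatin death relative to control siRNA, from -50 (all cells die) to +50 (no cells die); siRNAs harmful on their own scored 0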
Scale: two-siRNA summed score (-2 to +2): higher = both siRNAs protect from cisplatin killing; -2 means both sensitise; mean protection from cisplatin (shift in death): higher = protection from cisplatin killing
Rule for the call: 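Each siRNA scores 0 if harmful alone by LDH or WST-1, otherwise +1 if it reduces and -1 if it increases cisplatin killing; a gene is active when both siRNAs agree (sum +2 or -2)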
Meaning of the calls: active = both siRNAs shift cisplatin killing the same way; inactive = no consistent shift, or siRNA harmful alone

FLJ46875 (GeneID 440918): two-siRNA summed score (-2 to +2) = 1; mean protection from cisplatin (shift in death) (%) = 19.7
FLJ42393 (GeneID 401105): two-siRNA summed score (-2 to +2) = 0; mean protection from cisplatin (shift in death) (%) = 6.1
KIAA1026: two-siRNA summed score (-2 to +2) = 0; mean protection from cisplatin (shift in death) (%) = 3.2
MRFAP1L2 (GeneID 93622): two-siRNA summed score (-2 to +2) = 0; mean protection from cisplatin (shift in death) (%) = -6.5
LOC387761: two-siRNA summed score (-2 to +2) = 0; mean protection from cisplatin (shift in death) (%) = 7.2
CAPN1 (GeneID 823): two-siRNA summed score (-2 to +2) = -1; mean protection from cisplatin (shift in death) (%) = -13.9
PLEK2 (GeneID 26499): two-siRNA summed score (-2 to +2) = 0; mean protection from cisplatin (shift in death) (%) = 8.1
ZSCAN10 (GeneID 84891): two-siRNA summed score (-2 to +2) = 0; mean protection from cisplatin (shift in death) (%) = -3.9
GIMAP1 (GeneID 170575): two-siRNA summed score (-2 to +2) = 0; mean protection from cisplatin (shift in death) (%) = 0.9
P4HA3 (GeneID 283208): two-siRNA summed score (-2 to +2) = 2 (active); mean protection from cisplatin (shift in death) (%) = 23.2
RXFP4 (GeneID 339403): two-siRNA summed score (-2 to +2) = 0; mean protection from cisplatin (shift in death) (%) = 2.6
ZNF180 (GeneID 7733): two-siRNA summed score (-2 to +2) = 0; mean protection from cisplatin (shift in death) (%) = 10.2
HERC6 (GeneID 55008): two-siRNA summed score (-2 to +2) = 0; mean protection from cisplatin (shift in death) (%) = 8.4
KRTAP1-3 (GeneID 81850): two-siRNA summed score (-2 to +2) = 0; mean protection from cisplatin (shift in death) (%) = -1.2
LOC387654: two-siRNA summed score (-2 to +2) = 1; mean protection from cisplatin (shift in death) (%) = 14.4
KLHL13 (GeneID 90293): two-siRNA summed score (-2 to +2) = 0; mean protection from cisplatin (shift in death) (%) = 12.7
H1-1 (GeneID 3024): two-siRNA summed score (-2 to +2) = 1; mean protection from cisplatin (shift in death) (%) = 16.2
OR8G2P (GeneID 26492): two-siRNA summed score (-2 to +2) = 0; mean protection from cisplatin (shift in death) (%) = 7.5
NUDCD1 (GeneID 84955): two-siRNA summed score (-2 to +2) = 0; mean protection from cisplatin (shift in death) (%) = 2.6
CACNG3 (GeneID 10368): two-siRNA summed score (-2 to +2) = -1; mean protection from cisplatin (shift in death) (%) = -17.4
H1-9P (GeneID 373861): two-siRNA summed score (-2 to +2) = 0; mean protection from cisplatin (shift in death) (%) = 3.7
DPYSL2 (GeneID 1808): two-siRNA summed score (-2 to +2) = 0; mean protection from cisplatin (shift in death) (%) = -10.8
OR13D1 (GeneID 286365): two-siRNA summed score (-2 to +2) = 0; mean protection from cisplatin (shift in death) (%) = 6
RHOU (GeneID 58480): two-siRNA summed score (-2 to +2) = 0; mean protection from cisplatin (shift in death) (%) = 1.9
FSD2 (GeneID 123722): two-siRNA summed score (-2 to +2) = 0; mean protection from cisplatin (shift in death) (%) = -2.7
HAAO (GeneID 23498): two-siRNA summed score (-2 to +2) = 0; mean protection from cisplatin (shift in death) (%) = 2.1
LOC391804: two-siRNA summed score (-2 to +2) = 0; mean protection from cisplatin (shift in death) (%) = 1
C10orf71 (GeneID 118461): two-siRNA summed score (-2 to +2) = 0; mean protection from cisplatin (shift in death) (%) = 12.5
RNF181 (GeneID 51255): two-siRNA summed score (-2 to +2) = 0; mean protection from cisplatin (shift in death) (%) = 1.6
CHL1 (GeneID 10752): two-siRNA summed score (-2 to +2) = 0; mean protection from cisplatin (shift in death) (%) = 12.2
LOC392335: two-siRNA summed score (-2 to +2) = 1; mean protection from cisplatin (shift in death) (%) = 14.6

5 entries from above, reduced to “two-siRNA summed score (-2 to +2)”.
DPYSL2 (GeneID 1808)	0
OR13D1 (GeneID 286365)	0
RHOU (GeneID 58480)	0
FSD2 (GeneID 123722)	0
HAAO (GeneID 23498)	0
